Laboratory results as given in US20170312274A1, “METHOD FOR TREATING A BRAIN TUMOUR” (The Hospital for Sick Children, priority 2014, published 2017).
Some entries share one result that the patent states for a list of compounds. For at least one compound, name, drawing or mass did not settle the structure.

What follows are compounds tested on GNS cells (GBM-derived neural stem cells) (assay: Secondary screen / dose response curve, Alamar Blue cell viability, five days). Details: dose response series 0.39-50 μM.
Type: cell-based, human
Procedure: GNS and NS lines were grown as an adherent monolayer culture in serum free medium as described previously (Pollard et al. 2009. Cell stem cell 4, 568-580). Primary tumour cells were freshly dissociated from the patient sample in artificial cerebrospinal fluid followed by treatment with an enzyme cocktail at 37° C. (Singh et al. 2003. Cancer research 63, 5821-5828). BJ fibroblast, Daoy and C8-D1A and U-2 0S (ATCC) were maintained in DMEM with 10% FBS.
Cells were seeded in laminin-coated 384 well plates at a density of 2000 cells per well. Compounds were added at a concentration of approximately 5 μM and incubated with cells for five days at 37° C. Cell viability was assessed by measuring Alamar Blue incorporation according to the manufacturer's protocol (Invitrogen). Percent growth inhibition was calculated relative to the control DMSO wells.
The potency and selectivity of hits from the primary screen was tested in 8-point two-fold dilution series ranging from 50 μM-0.39 μM concentrations with more lines of GNS, NS and fibroblast. Experimental conditions were the same as in primary screen. IC50 was calculated based on an approximate observed value. Fold selectivity was calculated as IC50 of BJ/IC50 of any GNS cells with lowest IC50.

| Compound | Fold selectivity towards GNS and NS cells compared to fibroblasts (IC50 of BJ/IC50 of any of the NS or GNS lines that showed the lowest IC50) |
| --- | --- |
| CCC(Oc1ccc(Cl)cc1)C(=O)OC1CC2CCC(C1)N2C (racemic) [(±)-Tropanyl-2-(4-chlorophenoxy)butanoate] | more than 8 fold |
| Cc1cc(C)cc(C(=O)OC2CC3CCC(C2)N3C)c1 (stereo not drawn) [Tropanly 3,5-dimethylbenzoate] | more than 8 fold |
| Ifenprodil tartrate | more than 8 fold |
